Test results published in patent US11230581B2, “Peptides and combination of peptides for use in immunotherapy against ovarian cancer and other cancers” (Immatics Biotechnologies GmbH, priority 2015, dated 2022).

How the values were obtained:
additional tumor types = test: LC-MS detection and over-presentation of the peptides on additional tumor types, cell lines and primary cultures; set-up: species or system human; details: for Other relevant organs/ cancerous diseases: Table 4A: additional tumor types on which the peptide was found, over-presented on more than 5% of measured tumor samples, or presented on more than 5% with ratio of geometric means tumor vs normal tissues larger than 3; for Additional organs/cancerous diseases: amendment of Table 4: additional tumor types showing over-presentation (including specific presentation) on more than 5% of measured tumor samples, or presentation on more than 5% with ratio of geometric means tumor vs normal tissues larger than 3
ovarian cancer samples = test: Relative LC-MS quantitation of HLA-presented peptides: presentation and over-presentation on ovarian cancer vs a panel of normal tissues (presentation score); set-up: species or system human; key: +++: very highly over-presented on tumors compared to a panel of normal tissues; ++: highly over-presented on tumors compared to a panel of normal tissues; +: over-presented on tumors compared to a panel of normal tissues; details: over-presentation on tumors compared to a panel of normal tissues

Substance | Other relevant organs/ cancerous diseases (additional tumor types) | Additional organs/cancerous diseases (additional tumor types) | Peptide Presentation (presentation score) (ovarian cancer samples)
103 (TLAEEVVAL; listed as Homo sapiens) [compound 103] | SCLC, BrCa, Esophageal Cancer | Melanoma, HNSCC | +++
105 (LLLEHSFEI; listed as Homo sapiens) [compound 105] | NSCLC, Melanoma | Urinary Bladder Cancer, Gallbladder Cancer and Bile Duct Cancer, NHL, HNSCC | ++
106 (LLYDAVHIVSV; listed as Homo sapiens) [compound 106] | Brain Cancer |  | +++
107 (FLQPVDDTQHL; listed as Homo sapiens) [compound 107] | Melanoma, Esophageal Cancer | Uterine Cancer, Gallbladder Cancer and Bile Duct Cancer | +++
108 (ALFPGVALLLA; listed as Homo sapiens) [compound 108] | SCLC, HCC, Endometrium | Melanoma | +++
110 (FLSQVDFEL; listed as Homo sapiens) [compound 110] | BrCa |  | +++
111 (YVWGFYPAEV; listed as Homo sapiens) [compound 111] |  | CLL, Uterine Cancer, NHL | +++
117 (ILPDGEDFLAV; listed as Homo sapiens) [compound 117] | SCLC | CLL, BRCA, Uterine Cancer, NHL | +++
118 (KLIDNNINV; listed as Homo sapiens) [compound 118] | Brain Cancer |  | +++
119 (FLYIGDIVSL; listed as Homo sapiens) [compound 119] | Leukemia | CLL, Melanoma | ++
120 (ALLGIPLTLV; listed as Homo sapiens) [compound 120] |  | Uterine Cancer | +++
123 (NLWDLTDASVV; listed as Homo sapiens) [compound 123] | SCLC, Prostate | NSCLC, BRCA, Melanoma, Esophageal Cancer, Uterine Cancer, Gallbladder Cancer and Bile Duct Cancer, HNSCC | +++
124 (ALYETELADA; listed as Homo sapiens) [compound 124] |  | CLL, Uterine Cancer, AML, NHL | +++
125 (VQIHQVAQV; listed as Homo sapiens) [compound 125] | NSCLC, SCLC, HCC, PC, Esophageal Cancer, Gallbladder Cancer, Bile Duct Cancer |  | +++
127 (KIGDEPPKV; listed as Homo sapiens) [compound 127] | NSCLC, SCLC, Brain Cancer, PC, Esophageal Cancer, Uterine Cancer | BRCA, Melanoma, Urinary Bladder Cancer, Gallbladder Cancer and Bile Duct Cancer, HNSCC | ++
129 (GLLDGGVDILL; listed as Homo sapiens) [compound 129] | HCC, Leukemia, Esophageal Cancer, Uterine Cancer | HNSCC | ++
131 (FVPPVTVFPSL; listed as Homo sapiens) [compound 131] | BrCa | Uterine Cancer | +++
132 (LLVEQPPLAGV; listed as Homo sapiens) [compound 132] | Leukemia | CLL, Melanoma | +++
134 (YLQELIFSV; listed as Homo sapiens) [compound 134] | Endometrium | CLL, HNSCC | +++

Substance | Other relevant organs/ cancerous diseases (additional tumor types) | Additional organs/cancerous diseases (additional tumor types) | Peptide Presentation (presentation score) (ovarian cancer samples)
135 (ALSEVDFQL; listed as Homo sapiens) [compound 135] | SCLC, Brain Cancer |  | +++
137 (TLVLTLPTV; listed as Homo sapiens) [compound 137] |  | SCLC, CLL, Urinary Bladder Cancer, Uterine Cancer, Gallbladder Cancer and Bile HDuct Cancer, AML, NHL, NSCC | +++
138 (YQYPRAILSV; listed as Homo sapiens) [compound 138] |  | NSCLC, AML | +++
139 (SVMEVNSGIYRV; listed as Homo sapiens) [compound 139] | HCC, MCC | SCLC, CLL, Urinary Bladder Cancer, Uterine Cancer, Gallbladder Cancer and Bile Duct Cancer, NHL, HNSCC | +++
141 (YLDFSNNRL; listed as Homo sapiens) [compound 141] | SCLC, BrCa | CLL | +++
142 (FLFATPVFI; listed as Homo sapiens) [compound 142] | SCLC |  | +++
143 (LLLDITPEI; listed as Homo sapiens) [compound 143] | NSCLC, Brain Cancer, HCC, PC, BrCa, Melanoma, Esophageal Cancer |  | +++
144 (YIMEPSIFNTL; listed as Homo sapiens) [compound 144] | HCC, Leukemia, Melanoma, Urinary bladder Cancer | CLL, BRCA | ++
145 (FLATSGTLAGI; listed as Homo sapiens) [compound 145] | Prostate |  | +++
146 (SLATAGDGLIEL; listed as Homo sapiens) [compound 146] | Urinary bladder, Endometrium | BRCA | +++
147 (SLLEAVSFL; listed as Homo sapiens) [compound 147] |  | Gallbladder Cancer and Bile Duct Cancer, AML, HNSCC | +
148 (ALNPEIVSV; listed as Homo sapiens) [compound 148] | Esophageal Cancer, Urinary bladder Cancer | SCLC, CLL, Melanoma, NHL, HNSCC | +++
149 (NLLELFVQL; listed as Homo sapiens) [compound 149] | SCLC, Leukemia, BrCa, Urinary bladder Cancer, Uterine Cancer |  | +++
150 (RLWEEGEELEL; listed as Homo sapiens) [compound 150] | NSCLC, Melanoma, Esophageal Cancer | Uterine Cancer, Gallbladder Cancer and Bile Duct Cancer, HNSCC | +++
151 (KILQQLVTL; listed as Homo sapiens) [compound 151] | Endometrium | BRCA, Melanoma, Gallbladder Cancer and Bile Duct Cancer | +++
152 (ILFEDIFDV; listed as Homo sapiens) [compound 152] | SCLC, Endometrium | BRCA, Gallbladder Cancer and Bile Duct Cancer | +++
153 (FLIANVLYL; listed as Homo sapiens) [compound 153] | SCLC, Urinary bladder Cancer, Uterine Cancer | HNSCC | +++
155 (RVANLHFPSV; listed as Homo sapiens) [compound 155] | Melanoma, Esophageal Cancer | CLL, HNSCC | +
